Assay results as given in patent US7276339B2 (H. Lundbeck A/S, priority 1998, dated 2007).
At least one structure is not confirmed: it was looked up by name or label, or the drawing left a doubt. No end group written: not given here.

Protein sequences, listed by entry. Tags and fused reporters are not part of them. Lines headed by an entry give the natural chain unless they say otherwise; changes in a name come on top. Residues count along the entry.
UniProt Q9Y5X5, 103-522: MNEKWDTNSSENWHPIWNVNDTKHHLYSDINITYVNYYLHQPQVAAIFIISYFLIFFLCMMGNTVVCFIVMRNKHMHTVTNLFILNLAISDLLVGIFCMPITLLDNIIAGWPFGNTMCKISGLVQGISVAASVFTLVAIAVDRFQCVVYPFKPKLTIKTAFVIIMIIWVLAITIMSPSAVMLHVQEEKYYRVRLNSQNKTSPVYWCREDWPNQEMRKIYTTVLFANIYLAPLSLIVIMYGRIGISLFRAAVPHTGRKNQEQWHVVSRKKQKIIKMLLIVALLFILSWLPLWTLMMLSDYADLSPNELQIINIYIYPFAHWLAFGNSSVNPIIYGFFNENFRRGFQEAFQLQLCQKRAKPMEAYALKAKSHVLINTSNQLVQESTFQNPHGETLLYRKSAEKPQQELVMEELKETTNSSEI
UniProt Q9EQD2: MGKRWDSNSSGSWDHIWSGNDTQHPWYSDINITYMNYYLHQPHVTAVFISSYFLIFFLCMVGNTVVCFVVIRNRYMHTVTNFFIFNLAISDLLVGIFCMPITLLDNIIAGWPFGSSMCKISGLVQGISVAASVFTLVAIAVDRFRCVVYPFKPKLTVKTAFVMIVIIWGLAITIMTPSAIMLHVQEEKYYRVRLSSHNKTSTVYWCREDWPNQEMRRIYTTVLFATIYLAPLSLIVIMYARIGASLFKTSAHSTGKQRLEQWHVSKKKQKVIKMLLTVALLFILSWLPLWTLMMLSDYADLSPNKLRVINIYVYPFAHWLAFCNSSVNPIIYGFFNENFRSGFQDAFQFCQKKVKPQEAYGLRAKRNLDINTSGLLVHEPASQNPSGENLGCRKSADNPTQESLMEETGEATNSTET
UniProt Q9GZQ6: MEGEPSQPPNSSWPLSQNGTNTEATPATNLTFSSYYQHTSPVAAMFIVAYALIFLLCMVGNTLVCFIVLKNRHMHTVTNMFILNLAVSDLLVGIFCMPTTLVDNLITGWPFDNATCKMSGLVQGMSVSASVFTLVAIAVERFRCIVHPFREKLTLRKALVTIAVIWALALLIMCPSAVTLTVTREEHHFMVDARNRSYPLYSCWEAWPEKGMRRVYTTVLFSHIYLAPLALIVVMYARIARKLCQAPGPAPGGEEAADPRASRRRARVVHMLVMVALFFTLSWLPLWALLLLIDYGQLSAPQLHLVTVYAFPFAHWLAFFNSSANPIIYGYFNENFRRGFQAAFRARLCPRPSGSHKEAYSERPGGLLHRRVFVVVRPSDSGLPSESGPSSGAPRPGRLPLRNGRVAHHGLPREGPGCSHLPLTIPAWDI
UniProt Q9EP86: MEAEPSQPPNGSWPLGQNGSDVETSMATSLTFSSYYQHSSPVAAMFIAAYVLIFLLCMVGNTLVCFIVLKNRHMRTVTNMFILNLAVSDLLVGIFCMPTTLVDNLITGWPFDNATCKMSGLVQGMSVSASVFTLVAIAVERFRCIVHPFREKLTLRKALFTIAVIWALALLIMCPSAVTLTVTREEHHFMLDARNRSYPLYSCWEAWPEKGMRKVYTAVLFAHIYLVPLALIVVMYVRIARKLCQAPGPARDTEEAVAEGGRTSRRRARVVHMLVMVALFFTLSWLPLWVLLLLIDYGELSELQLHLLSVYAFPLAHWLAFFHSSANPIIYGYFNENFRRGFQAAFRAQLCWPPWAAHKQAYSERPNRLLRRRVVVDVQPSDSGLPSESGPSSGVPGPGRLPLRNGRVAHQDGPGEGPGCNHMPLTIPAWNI

How the values were obtained:
human NPFF2 receptor [1] = biological target: T1, human NPFF2 receptor (Homo sapiens, UniProt Q9Y5X5); assay: [125I]D-Tyr-NPFF radioligand binding, HEK-293 cells expressing human NPFF2; settings: for pKi ″ SEM, human NPFF2: Table 10
T1 construct: BO89, was determined to be a full length clone with no point mutations; expressed in transfected cells; host or cells: HEK-293 (transient)
Experimental: (§1) Transfected cells from culture flasks are scraped into 5 ml of 20 mM Tris-HCl, 5 mM EDTA, pH 7.5, and lysed by sonication. The cell lysates are centrifuged at 1000 rpm for 5 min. at 4° C., and the supernatant is centrifuged at 30,000×g for 20 min. at 4° C. The pellet is suspended in binding buffer (50 mM Tris-HCl, 60 mM NaCl, 1 mM MgCl, 33 μM EDTA, 33 μM EGTA at pH 7.4 supplemented with 0.2% BSA, 2 μg/ml aprotinin, and 20 μM bestatin). Optimal membrane suspension dilutions, defined as the protein concentration required to bind less than 10% of the added radioligand, are added to 96-well polpropylene microtiter plates containing ^3H-labeled compound, unlabeled compounds, and binding buffer to a final volume of 250 μl. In equilibrium saturation binding assays membrane preparations are incubated in the presence of increasing concentrations of [^3H]-labeled compound. The binding affinities of the different compounds are determined in equilibrium competition binding assays, using [^125I]-labeled compound in the presence of ten to twelve different concentrations of the displacing ligands. Competition assay: 50 pM radioligand, 10-12 points. Binding reaction mixtures are incubated for 2 hr at 25° C., and the reaction stopped by filtration through a double layer of GF filters treated with 0.1% polyethyleneimine, using a cell harvester. Wash buffer: 50 mM Tris-HCl, 0.1% BSA. Radioactivity may be measured by scintillation counting and data are analyzed by a computerized non-linear regression program. Non-specific binding is defined as the amount of radioactivity remaining after incubation of membrane protein in the presence of 1 μM final concentration […]. Protein concentration may be measured by the Bradford method using Bio-Rad Reagent, with bovine serum albumin as a standard.
(§2) Additional pharmacological evaluation was done using 293 human embryonic kidney cells (HEK-293 cells) transiently expressing the genes encoding the human NPFF1, NPFF2, and rat NPFF1 receptors, as well as Cos-7 cells expressing the rat NPFF2 receptors.

rat NPFF2 receptor = biological target: T2, rat NPFF2 receptor (Rattus norvegicus, UniProt Q9EQD2); assay: [125I]D-Tyr-NPFF radioligand binding, cloned rat NPFF2; settings: for pKi ″ SEM, rat NPFF2: Table 10, HEK-293 cells
T2 construct: The full-length rat NPFF2 clone was amplified from rat spinal cord cDNA; expressed in transfected cells; host or cells: COS-7
Experimental: as §1, §2

human NPFF1 receptor [2] = biological target: T3, human NPFF1 receptor (Homo sapiens, UniProt Q9GZQ6); assay: [125I]D-Tyr-NPFF radioligand binding, HEK-293 cells expressing human NPFF1
T3 construct: To obtain a full-length hNPFF1 construct in the correct orientation; expressed in transfected cells; host or cells: HEK-293 (transient)
Experimental: as §1, with “In equilibrium saturation binding assays membrane preparations are incubated in the presence of increasing concentrations of [^3H]-labeled compound.” left out, “Competition assay: 50 pM radioligand, 10-12 points. Binding reaction mixtures are incubated for 2 hr at 25° C., and the reaction stopped by filtration through a double layer of GF filters treated with 0.1% polyethyleneimine, using a cell harvester. Wash buffer: 50 mM Tris-HCl, 0.1% BSA.” left out, “standard. […]” for “standard.”

human NPFF1 receptor [3] = biological target: T3, human NPFF1 receptor; assay: Intracellular calcium mobilization, COS-7 cells expressing human NPFF1 and Gq/Gz chimera; type: cell-based
human NPFF2 receptor [4] = biological target: T1, human NPFF2 receptor; assay: Intracellular calcium mobilization, COS-7 cells expressing human NPFF2 and Gq/Gz chimera; type: cell-based
rat NPFF1 receptor = rat NPFF1 receptor (Rattus norvegicus, UniProt Q9EP86); assay: [125I]D-Tyr-NPFF radioligand binding, HEK-293 cells expressing rat NPFF1; parameters: expressed in transfected cells; settings: Table 3
Experimental: as §1, with “In equilibrium saturation binding assays membrane preparations are incubated in the presence of increasing concentrations of [^3H]-labeled compound.” left out, “Competition assay: 50 pM radioligand, 10-12 points. Binding reaction mixtures are incubated for 2 hr at 25° C., and the reaction stopped by filtration through a double layer of GF filters treated with 0.1% polyethyleneimine, using a cell harvester. Wash buffer: 50 mM Tris-HCl, 0.1% BSA.” left out, “standard. […]” for “standard.”

Row | pKi ″ SEM, human NPFF2 (human NPFF2 receptor [1]) | pKi ″ SEM, rat NPFF2 (rat NPFF2 receptor) | pKi ″ SEM, human NPFF1 (human NPFF1 receptor [2]; Table 10) | pKi ± SEM, human NPFF1 (human NPFF1 receptor [2]; Table 3, [125I]D-Tyr-NPFF) | pKi ± SEM, human NPFF2 (human NPFF2 receptor [1]; Table 3, [125I]D-Tyr-NPFF) | pKi ± SEM, rat NPFF2 (rat NPFF2 receptor; Table 3, title HEK-293 cells (text: Cos-7), [125I]D-Tyr-NPFF) | pEC50, intracellular calcium mobilization, NPFF1 (human NPFF1 receptor [3]) | pEC50, intracellular calcium mobilization, NPFF2 (human NPFF2 receptor [4]) | pKi ± SEM, rat NPFF1 (rat NPFF1 receptor) | Molecule
1 | 6.3 ″ 0.05 | 6.2 ″ 0.07 |  |  |  |  |  |  |  | NC(N)=NCCC[C@H](NC(=O)C(c1ccccc1)c1ccccc1)C(=O)NCc1ccc(O)cc1 [BIBP3435]
2 | 5.9 ″ 0.04 | 5.8 ″ 0.02 | 6.9 ″ 0.04 |  |  |  |  |  |  | NC(N)=NCCC[C@@H](NC(=O)C(c1ccccc1)c1ccccc1)C(=O)NCc1ccc(O)cc1 [BIBP 3226]
3 |  |  |  | 5.9 ± 0.09 | 7.4 ± 0.13 | 7.3±0.02 | <5.0 | 6.7 ± 0.07 | 5.4±0.010 | APSEPHHPGDQATQDQLAQYYSDLYQYITFVTRPRF-NH2 (C-terminus assumed) [fPP]
